Drawing on paper PMC5540913, this text covers binding for three molecules.

The chains behind the UniProt entries cited, without tags or fusion partners.
UniProt P30051: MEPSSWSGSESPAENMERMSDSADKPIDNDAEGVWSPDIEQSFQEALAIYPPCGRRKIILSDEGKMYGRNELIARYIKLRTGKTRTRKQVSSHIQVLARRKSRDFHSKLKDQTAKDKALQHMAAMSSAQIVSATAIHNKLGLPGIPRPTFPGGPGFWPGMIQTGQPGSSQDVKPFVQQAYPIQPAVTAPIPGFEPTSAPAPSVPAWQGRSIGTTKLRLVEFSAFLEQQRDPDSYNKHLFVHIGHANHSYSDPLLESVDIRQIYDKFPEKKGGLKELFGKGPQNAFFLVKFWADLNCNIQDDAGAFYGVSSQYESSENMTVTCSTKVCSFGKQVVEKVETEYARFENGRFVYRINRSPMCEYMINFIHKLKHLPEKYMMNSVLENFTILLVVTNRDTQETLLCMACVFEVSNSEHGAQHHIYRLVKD
UniProt Q62296: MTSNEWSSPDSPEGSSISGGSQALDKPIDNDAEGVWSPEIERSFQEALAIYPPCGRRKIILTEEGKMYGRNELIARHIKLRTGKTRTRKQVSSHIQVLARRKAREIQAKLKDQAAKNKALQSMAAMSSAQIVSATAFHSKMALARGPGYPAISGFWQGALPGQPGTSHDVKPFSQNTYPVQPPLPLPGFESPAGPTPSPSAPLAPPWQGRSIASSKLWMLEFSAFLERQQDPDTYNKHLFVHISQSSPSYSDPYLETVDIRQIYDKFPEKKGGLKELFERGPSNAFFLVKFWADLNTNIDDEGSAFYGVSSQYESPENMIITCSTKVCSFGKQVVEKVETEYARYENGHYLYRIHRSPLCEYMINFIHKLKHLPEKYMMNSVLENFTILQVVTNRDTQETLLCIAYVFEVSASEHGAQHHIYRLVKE

Holding throughout (assay): co-IP; endogenous proteins in P7 mouse GPS muscle extracts (20 mM HEPES-NaOH pH 8.0, 150 mM NaCl, 1 mM EDTA, 1.5 mM MgCl2, 0.5% Triton X-100, 10% glycerol; sonicated, Benzonase-treated); anti-Vgll2, anti-TEAD1 or anti-TEAD4 antibody on Dynabeads, 1 h at 4 °C, washed 3 times in PBS; Western blot; controls: Vgll2 -/- extracts and beads without antibody
On the technique in general: Immunoblotting shows a protein as a band on a membrane.

The target in test [1] is T1, Vestigial-like 2 (Vgll2) (mouse (endogenous in P7 GPS muscle)) (UniProt Q8BGW8).
T1 sequence: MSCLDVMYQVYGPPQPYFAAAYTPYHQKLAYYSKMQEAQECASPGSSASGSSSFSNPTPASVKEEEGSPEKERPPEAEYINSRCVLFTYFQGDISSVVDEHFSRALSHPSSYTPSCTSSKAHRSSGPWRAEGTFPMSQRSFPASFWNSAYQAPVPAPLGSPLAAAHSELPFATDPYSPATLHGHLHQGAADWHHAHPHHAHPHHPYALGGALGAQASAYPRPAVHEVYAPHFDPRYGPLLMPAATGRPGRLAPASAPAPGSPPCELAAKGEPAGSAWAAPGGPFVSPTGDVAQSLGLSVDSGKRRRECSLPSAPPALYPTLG

The target in test [2] is TEA domain transcription factor 1 (TEAD1) (mouse (endogenous in P7 GPS muscle)) (UniProt P30051).
For test [3], the target named is TEA domain transcription factor 4 (TEAD4) (mouse (endogenous in P7 GPS muscle)) (UniProt Q62296).

These are yes or no findings as the source states them, for the method shown. Binding seen in cells or lysates may run through a third protein. Some entries that bind do so weakly or less than the wild type.

As for “TEA domain transcription factor 4 (TEAD4) (from UniProt Q62296 1-427)”, the binding entry in test [1] was “binds”.
On to “TEA domain transcription factor 1 (TEAD1) (from UniProt P30051 1-426)”, for which the binding result in test [1] is reported as “binds”.

B1: Vestigial-like 2 (Vgll2) (protein, UniProt Q8BGW8 1-322)
chain: MSCLDVMYQVYGPPQPYFAAAYTPYHQKLAYYSKMQEAQECASPGSSASGSSSFSNPTPASVKEEEGSPEKERPPEAEYINSRCVLFTYFQGDISSVVDEHFSRALSHPSSYTPSCTSSKAHRSSGPWRAEGTFPMSQRSFPASFWNSAYQAPVPAPLGSPLAAAHSELPFATDPYSPATLHGHLHQGAADWHHAHPHHAHPHHPYALGGALGAQASAYPRPAVHEVYAPHFDPRYGPLLMPAATGRPGRLAPASAPAPGSPPCELAAKGEPAGSAWAAPGGPFVSPTGDVAQSLGLSVDSGKRRRECSLPSAPPALYPTLG
Consider B1, for which the binding result in test [2] and in test [3] was “binds” throughout.
